Measurements from patent US20230393144A1.
No constants are given. Whether binding was seen depends on the method and setting. Some entries that bind do so weakly or less than the wild type.

Molecular target: anti-CD47 antibody TJC4
Assay: indirect ELISA / blocking IC50 against anti-CD47 TJC4; own IC50 not given

binding: binds
B1: anti-idiotypic antibody 34D8H11B5 (antibody, V domains shown)
VH: EVQLQQSGPELEKPGASVKISCKASGYSFSDYNMNWVKQGNGESLEWIGYVDPYYGDTRYNQNFKGKATLTVDKSSSTAYMQLKSLTSEDSAVYYCALSETPRAMDYWGQGTSVTVSP
VL: DIVMTQSPATLSVTPGDRVSLSCRASQSISDYLHWYQQKSNESPRLLIKYASQSISGIPSRFSGSGSGSDFTLNINSVEPEDVGVYYCQNGHSLPLTFGAGTKLELK
